Assay results taken from ChEMBL document CHEMBL4513149, “CO-ADD screening of MMV (CH) - MMV compounds” (2021).
The other results are listed elsewhere or left out. Results with a measured potency or affinity are listed apart.

These compounds were tested on Acinetobacter baumannii. Details: Concentration 20 uM; ASSAY_TEST Inhibition of Bacterial Growth; detection method Absorption (OD600); MEDIA CAMHB; plate type 384well; NBS; CORNING #3640; time 18 hr.

SMILES | Inhibition [%]
CCc1ccc(C(NCc2nc(N)nc(N(C)C)n2)C(C)C)cc1 (configuration not stated) | 8.61
Cc1cc2nc(NC(=O)C(C)(C)C)nc(Cl)c2n1Cc1ccc(Cl)cc1 | 5.01
CN1CCCN(C(c2ccccc2)c2ccc(Cl)cc2)CC1 (configuration not stated) [HOMOCHLORCYCLIZINE] | 11.17
COc1ccc(C2=NN(C3CCCCCC3)C(=O)C2(C)C)cc1OCCCCOc1ccc(-c2nn[nH]n2)cc1 | 13.38
Cc1ccc2nc(Cl)c(CNCc3cccs3)cc2c1 | 3.22
Cc1ccc(NC(=O)c2cc(S(=O)(=O)NC(C)(C)C)ccc2C)nc1 | 13.83
CN1CCN(c2cc(-c3ccc(F)cc3)nc(-c3ccncc3)n2)CC1 | 6.73
O=C(NCCc1ccn(-c2ccccc2)n1)C1CCCCC1 | 10.96
Cc1ncc(-c2ccnc(Nc3ccc(S(C)(=O)=O)cc3)n2)n1C(C)C [AZD-5438] | 12.12
Cc1cc(Cl)ccc1NC(=O)CCc1ccc(S(=O)(=O)NCC(C)C)cc1 | 10.28
Cl.NCC(c1cccs1)S(=O)(=O)c1ccccc1 (configuration not stated) | 4.77
Cc1cc(C)n2nc(C(=O)Nc3cc(C(F)(F)F)ccc3N3CCOCC3)nc2n1 | 13.07
Cc1cc(OCC(=O)NCc2ccccc2)c2cc(Br)ccc2n1 | -1.87
CCCS(=O)(=O)N1CCC(CO)(Cc2ccccc2C(F)(F)F)CC1 | 8.39
Nc1ncnc2c1c(Cc1cccc3ccccc13)nn2CC1CCNCC1 | 4.89
C[C@H](C(N)=O)N1CCCC[C@@H]1c1ccc(OCc2cccc(F)c2)cc1 | 8.68
CC(C)(C)CN1C(=O)C(c2ccccc2)(c2ccccc2)N=C1N | 15.35
CS(=O)(=O)c1cccc(-c2cnc3[nH]cc(-c4ccc(CCC(=O)O)cc4)c3c2)c1 | 9.12
CCOC(=O)c1cc(-c2csc(Nc3c(C)cc(C)cc3C)n2)on1 | 7.91

SMILES | Inhibition [%]
CN1CCN(c2nccc3nc(-c4ccc(F)c(F)c4)[nH]c23)CC1 | 9.15
NC(=O)c1cc(Br)ccc1OCCOc1ccccc1 | -15.42
O=C(C1CCN(c2nnc(-n3cccc3)s2)CC1)N1CCC(Cc2ccccc2)CC1 | 8.47
O=C(Nc1c(O)cccc1-c1nc2c(C(=O)O)cccc2o1)c1cc(-c2ccccc2)on1 | 3.59
CCN(CC)CCCCCCNc1cc(OC)cc2c(C)ccnc12.Cc1ccc(S(=O)(=O)O)cc1 | 19.24
C[C@H](C(N)=O)N1CCCC[C@H]1c1ccc(OCc2cccc(F)c2)cc1 | 8.36
CN1CCC(c2cc(-c3ccncc3)c(-c3ccc(F)cc3)[nH]2)CC1 | 12.09
O=C(Nc1cccc(Cl)c1)c1cnc(N2CCN(c3ccncc3)CC2)c(Cl)c1 | 8.05
CC1(COc2ccc(N3CCC(Oc4ccc(OC(F)(F)F)cc4)CC3)cc2)Cn2cc([N+](=O)[O-])nc2O1 (configuration not stated) | 8.97
CC(C(=O)Nc1ccc2oc(-c3ccncc3)nc2c1)c1ccccc1 (configuration not stated) | 5.27
CCOc1ccc(OCC(=O)Nc2cc(C)cc(C)c2)cc1 | 0.05
Cc1cc(C)cc(COc2ccc3c(C)c(CCC(=O)O)c(=O)oc3c2C)c1 | 11.24
Nc1ncc(Br)cc1-c1nc2cc(Cl)cnc2[nH]1 | 11.57
CN(C(=O)c1cc2c(-c3cncnc3)cccc2[nH]1)c1ccccc1 | -2.72
CN(C)CCNC(=O)N1CCCN(c2ncnc3cc(-c4ccccc4)sc23)CC1 | 11.59
Cn1ncc2c(N3CCOCC3)nc(NCCc3c[nH]c4ccccc34)nc21 [TDR79432] | 7.72
O=C(NCCN1CCCC1)c1cc(NCCN2CCOCC2)nc2ccc(Cl)cc12 | 9.33
O=C(NC1=NCCS1)c1sc2cc(F)ccc2c1Cl | 10.08
O=C(Cn1ccnc1[N+](=O)[O-])NCc1ccccc1 [BENZNIDAZOLE] | 13.69

SMILES | Inhibition [%]
Cl.Cl.Cl.NS(=O)(=O)c1cncc(-c2ccc3nccc(-c4cn[nH]c4)c3n2)c1 | 2.72
FC(F)(F)c1ccc(N(c2cccnc2)C2CCN(c3ccc(C(F)(F)F)cn3)CC2)cc1 | 7.79
Clc1ccc(-n2cc(COc3ccnc4ccccc34)nn2)cc1 | 7.79
Clc1ccc(CCNc2cc(-c3ccccc3)nc3ncnn23)cc1 | 13.13
N#Cc1nc(-c2ccccc2)oc1S(=O)(=O)c1ccc(Cl)cc1 | 2.76
O=C(NCc1ccoc1)N1CCN(Cc2ccc3c(c2)OCO3)CC1 | 6.63
Cc1nn2c(O)c3c(nc2c1-c1ccc(F)cc1)CCCC3 | 11.04
COc1ccc(C2(C(=O)Nc3ccc(Br)cc3)CCCC2)cc1 | -4.28
CC(C)(C)OC(=O)N1CCC(Cn2nc(-c3cnc4ccccc4c3)c3c(N)ncnc32)CC1 | 8.79
CC(C)C(NC(=O)Cc1cccc2ccccc12)C(=O)Nc1cccc(C#N)c1 (configuration not stated) | 6.32
O=C(NC1CC1)c1ccc(N2CCC(Cc3ccccc3)CC2)nc1 | 14.76
Cc1nn(C(=O)Nc2cccc(C(F)(F)F)c2)c(C)c1Sc1ncccn1 | 4.58
COc1ccc(OC(C)C(=O)Nc2ccc(Cl)cc2C)cc1 (configuration not stated) | 14.06
CN1CCC(NCc2cccc(-c3ccc(S(=O)(=O)NCc4ccccc4)cc3)c2)CC1 | 9.55
O=C(NC1CCCCC1)N1CCN(Cc2ccc3c(c2)OCO3)CC1 | 11.94
Cl.c1ccc(Oc2ccc(-c3cc(N4CCNCC4)[nH]n3)cc2)cc1 | -8.75
CNC(=O)CNc1nc(-c2ccccn2)nc2scc(-c3ccccc3)c12 | 14.89
COc1cccc(-c2cc3c(Nc4cccnc4)nccc3[nH]2)c1 | 7.03
Cc1ccc(C(=O)Nc2ccc(S(=O)(=O)O)c3cc(S(=O)(=O)O)cc(S(=O)(=O)O)c23)cc1NC(=O)c1cccc(NC(=O)Nc2cccc(C(=O)Nc3cc(C(=O)Nc4ccc(S(=O)(=O)O)c5cc(S(=O)(=O)O)cc(S(=O)(=O)O)c45)ccc3C)c2)c1 [SURAMIN] | 10.42

An excerpt of these results, tab-delimited:
SMILES	Inhibition [%]
Cl.Cl.Cl.NS(=O)(=O)c1cncc(-c2ccc3nccc(-c4cn[nH]c4)c3n2)c1	2.72
FC(F)(F)c1ccc(N(c2cccnc2)C2CCN(c3ccc(C(F)(F)F)cn3)CC2)cc1	7.79
N#Cc1nc(-c2ccccc2)oc1S(=O)(=O)c1ccc(Cl)cc1	2.76
O=C(NCc1ccoc1)N1CCN(Cc2ccc3c(c2)OCO3)CC1	6.63
Cc1nn2c(O)c3c(nc2c1-c1ccc(F)cc1)CCCC3	11.04
COc1ccc(C2(C(=O)Nc3ccc(Br)cc3)CCCC2)cc1	-4.28
CC(C)(C)OC(=O)N1CCC(Cn2nc(-c3cnc4ccccc4c3)c3c(N)ncnc32)CC1	8.79
CC(C)C(NC(=O)Cc1cccc2ccccc12)C(=O)Nc1cccc(C#N)c1 (configuration not stated)	6.32
Cc1nn(C(=O)Nc2cccc(C(F)(F)F)c2)c(C)c1Sc1ncccn1	4.58
COc1ccc(OC(C)C(=O)Nc2ccc(Cl)cc2C)cc1 (configuration not stated)	14.06
CN1CCC(NCc2cccc(-c3ccc(S(=O)(=O)NCc4ccccc4)cc3)c2)CC1	9.55
O=C(NC1CCCCC1)N1CCN(Cc2ccc3c(c2)OCO3)CC1	11.94
CNC(=O)CNc1nc(-c2ccccn2)nc2scc(-c3ccccc3)c12	14.89
Cc1ccc(C(=O)Nc2ccc(S(=O)(=O)O)c3cc(S(=O)(=O)O)cc(S(=O)(=O)O)c23)cc1NC(=O)c1cccc(NC(=O)Nc2cccc(C(=O)Nc3cc(C(=O)Nc4ccc(S(=O)(=O)O)c5cc(S(=O)(=O)O)cc(S(=O)(=O)O)c45)ccc3C)c2)c1 [SURAMIN]	10.42
